Experimental data: paper PMC12431657, “Discovery and mechanistic insights of dibenzoylmethane as a broad spectrum inhibitor of coronavirus” (PLOS Pathogens, 2025)
Read-outs that look alike come from different tables or passages of the source. Out of some 3,300 compounds screened, about 60 (2%) showed an effect of 50% or more. The list shows a part of the results. Peptide text beside a SMILES is read from it.

Tested on: HCoV-OC43
Set-up: species or system RD; HTS, protection from HCoV-OC43 induced cell death, luminescent cell viability (CellCounting-Lite 2.0), inhibition rate
Details: 24 h post infection, 1 h compound pre-incubation, 10 µM, inhibitor

Row | SMILES | OC43 Inhibition rate | OC43 Inhibition rate (OC43 Inhibition rate, 24 h)
1 | COc1ccc2c(C)cc(=O)oc2c1O [7-Methoxy-4-methyl-coumarin-8-ol] | -0.7% | –
2 | CC1(C)Oc2cc3oc(=O)ccc3cc2C[C@@H]1O [Decursinol] | -0.4% | –
3 | CC(C)=CCc1c(O)cc2c(c1O)C(=O)C[C@@H](c1ccc(O)cc1)O2 [(2S)-6-Prenylnaringenin] | 54.9% | –
4 | O=C[C@@H](O)[C@H](O)[C@@H](O)CO [L-Xylose] | 0.3% | –
5 | O=c1cc(-c2ccc(O)cc2)oc2c([C@@H]3O[C@H](CO)[C@@H](O[C@@H]4O[C@H](CO)[C@@H](O)[C@H](O)[C@H]4O)[C@H](O)[C@H]3O)c(O)cc(O)c12 [4”-O-Glucosylvitexin] | 0.3% | –
6 | O=C(O)c1ccccc1C(=O)O [Phthalic acid] | -0.3% | –
7 | COC(=O)C1=CO[C@@H](O)[C@@H]2[C@@H](C)[C@@H](O)C[C@H]12 [Loganetin] | -0.7% | –
8 | O=C(O)c1cc(O)c2c(c1)C(=O)c1cccc(O)c1C2=O [Rhein] | -0.1% | –
9 | CCCCCCCCCCCCCCCC(=O)OC [Methyl palmitate] | -0.3% | –
10 | CCC12C=CCN3CC[C@@]4(c5ccc(OC)cc5N(C)[C@H]4[C@@](O)(C(=O)OC)[C@@H]1OC(C)=O)[C@@H]32 (stereo partly drawn) [Vindoline] | -0.2% | –
11 | CC1=C[C@H]2[C@@H](CC1)[C@H](C)CC[C@H]2[C@@H](C)C(=O)O [Dihydroartemisinic acid] | 5.6% | –
12 | C[C@H]1CC[C@@]2(O)C(C)(C)[C@@H]3CC[C@@]2(C)[C@H]1C3 [Patchouli alcohol] | 0.2% | –
13 | CC1(C)C(=O)[C@]2(C)CC[C@H]1C2 [(-)-Fenchone] | 1.9% | –
14 | Oc1ccc([C@H]2COc3cc(O)ccc3C2)cc1 [(-)-(S)-Equol] | -0.2% | –
15 | C[C@H]1CCC/C=C/[C@@H]2C[C@H](O)C[C@H]2[C@H](O)/C=C/C(=O)O1 [Brefeldin A] | 20% | –
16 | CC(C)[C@H](NC(=O)CN)C(=O)O [Glycyl-L-valine] (H-Gly-Val-OH) | 0.2% | –
17 | C=C1C(=O)O[C@@H]2/C=C(\C)CC/C=C(\C)CC[C@@H]12 [Costunolide] | 13.7% | –
18 | C[C@]12CC[C@H]3[C@@H](CC=C4C[C@@H](O)CC[C@@]43C)[C@@H]1CC[C@@H]2C(=O)CO [21-Hydroxypregnenolone] | -0.2% | –
19 | CC(=O)c1ccccc1N [2'-Aminoacetophenone] | -0.3% | –
20 | CCCCCCCCCCCCC [Tridecane] | -3.8% | –
21 | Oc1ccc2c(c1)OCO2 [Sesamol] | -0.8% | –
22 | CO[C@H]1c2cc(C(C)C)c(O)c(O)c2[C@@]23CCCC(C)(C)[C@@H]2[C@@H]1OC3=O [7-Methoxyrosmanol] | 0.5% | –
23 | OC1OC[C@@H](O[C@@H]2OC[C@@H](O[C@@H]3OC[C@@H](O[C@@H]4OC[C@@H](O)[C@H](O)[C@H]4O)[C@H](O)[C@H]3O)[C@H](O)[C@H]2O)[C@H](O)[C@H]1O (stereo partly drawn) [Xylotetraose] | 27.7% | –

Nos. 3 through 16 of the list above:
Row | SMILES | OC43 Inhibition rate | OC43 Inhibition rate (OC43 Inhibition rate, 24 h)
3 | CC(C)=CCc1c(O)cc2c(c1O)C(=O)C[C@@H](c1ccc(O)cc1)O2 [(2S)-6-Prenylnaringenin] | 54.9% | –
4 | O=C[C@@H](O)[C@H](O)[C@@H](O)CO [L-Xylose] | 0.3% | –
5 | O=c1cc(-c2ccc(O)cc2)oc2c([C@@H]3O[C@H](CO)[C@@H](O[C@@H]4O[C@H](CO)[C@@H](O)[C@H](O)[C@H]4O)[C@H](O)[C@H]3O)c(O)cc(O)c12 [4”-O-Glucosylvitexin] | 0.3% | –
6 | O=C(O)c1ccccc1C(=O)O [Phthalic acid] | -0.3% | –
7 | COC(=O)C1=CO[C@@H](O)[C@@H]2[C@@H](C)[C@@H](O)C[C@H]12 [Loganetin] | -0.7% | –
8 | O=C(O)c1cc(O)c2c(c1)C(=O)c1cccc(O)c1C2=O [Rhein] | -0.1% | –
9 | CCCCCCCCCCCCCCCC(=O)OC [Methyl palmitate] | -0.3% | –
10 | CCC12C=CCN3CC[C@@]4(c5ccc(OC)cc5N(C)[C@H]4[C@@](O)(C(=O)OC)[C@@H]1OC(C)=O)[C@@H]32 (stereo partly drawn) [Vindoline] | -0.2% | –
11 | CC1=C[C@H]2[C@@H](CC1)[C@H](C)CC[C@H]2[C@@H](C)C(=O)O [Dihydroartemisinic acid] | 5.6% | –
12 | C[C@H]1CC[C@@]2(O)C(C)(C)[C@@H]3CC[C@@]2(C)[C@H]1C3 [Patchouli alcohol] | 0.2% | –
13 | CC1(C)C(=O)[C@]2(C)CC[C@H]1C2 [(-)-Fenchone] | 1.9% | –
14 | Oc1ccc([C@H]2COc3cc(O)ccc3C2)cc1 [(-)-(S)-Equol] | -0.2% | –
15 | C[C@H]1CCC/C=C/[C@@H]2C[C@H](O)C[C@H]2[C@H](O)/C=C/C(=O)O1 [Brefeldin A] | 20% | –
16 | CC(C)[C@H](NC(=O)CN)C(=O)O [Glycyl-L-valine] (H-Gly-Val-OH) | 0.2% | –

Following part

Row | SMILES | OC43 Inhibition rate | OC43 Inhibition rate (OC43 Inhibition rate, 24 h)
24 | c1ccc2c(Cc3c[nH]c4ccccc34)c[nH]c2c1 [3,3'-Diindolylmethane] | -0.2% | –
25 | COc1c2ccoc2c(OCC=C(C)C)c2oc(=O)ccc12 [Phellopterin] | 21.3% | –
26 | CC1(C)CC[C@]2(C(=O)O)CCC3=C([C@@H](CCl)C[C@@H]4[C@@]5(C)C[C@H](O)[C@H](O)[C@@](C)(C(=O)O)[C@@H]5CC[C@@]34C)[C@@H]2C1 [Tenuigenin] | -0.4% | –
27 | CC(=O)c1ccc(O)cc1 [4-Hydroxyacetophenone] | -0.2% | –
28 | COC(=O)c1cccnc1 [Methyl nicotinate] | 3.2% | –
29 | CC(=O)C1=C(O)C=C2Oc3c(C(C)=O)c(O)c(C)c(O)c3[C@@]2(C)C1=O [(+)-Usnic acid] | -1.4% | –
30 | O=C(CCc1ccc(O)cc1)c1c(O)cc(O)cc1O[C@@H]1O[C@H](CO)[C@@H](O)[C@H](O)[C@H]1O [Phlorizin] | -0.2% | –
31 | C[C@]12CCC(=O)C=C1CC[C@@H]1[C@@H]2[C@@H](O)C[C@@]2(C)[C@H]1CC[C@]2(O)C(=O)CO [Hydrocortisone] | -0.1% | –
32 | CC[C@@H](C)O [(R)-(-)-2-Butanol] | 0.1% | –
33 | O=C(O)CC(O)C(=O)O (stereo not drawn) [Malic acid] | 0.1% | –
34 | Nc1cc[nH]c(=O)n1 [Cytosine] | -0.2% | –
35 | C[C@H](CCC(=O)O)[C@H]1CC[C@H]2[C@@H]3CC=C4C[C@@H](O)CC[C@]4(C)[C@H]3CC[C@]12C [3b-Hydroxy-5-cholenoic acid] | 1.7% | –
36 | COc1cc(O)c2c(c1)oc(=O)c1c3cc(O)c(O)cc3oc21 [Wedelolactone] | 2.9% | –
37 | C[C@@H]1C[C@H]2CC3=C(CCC(=O)N3)[C@@]3(C1)[C@@H]2CCCN3C [α-Obscurine] | -0.2% | –
38 | Cn1cncc1C[C@H](NC(=O)CCN)C(=O)O [Anserine] | – | 5%
39 | O=Cc1c[nH]c2ccccc12 [Indole-3-carboxaldehyde] | 2.9% | –
40 | CC1(C)[C@@H]2CC[C@@]1(C)C(=O)C2 [(+)-Camphor] | -0.2% | –
41 | COc1ccc(-c2cc(=O)c3c(O)cc(O)c(-c4cc(-c5cc(=O)c6c(O)cc(O)cc6o5)ccc4OC)c3o2)cc1 [Isoginkgetin] | 23.2% | –
42 | CCCCC(CC)COC(=O)c1ccccc1C(=O)O (stereo not drawn) [Phthalic acid mono-2-ethylhexyl ester] | 3.2% | –
43 | C[C@]1(OC(=O)/C=C/c2ccccc2)C[C@@H](O)[C@]2(O)C=CO[C@@H](O[C@@H]3O[C@H](CO)[C@@H](O)[C@H](O)[C@H]3O)[C@@H]21 [Harpagoside] | -0.7% | –
44 | COc1cc2cc(Oc3ccc4ccc(=O)oc4c3)c(=O)oc2cc1O [Daphnoretin] | -0.1% | –
45 | COc1c2cc3c(c1OC)CCN(C)[C@@H]3Cc1ccc(cc1)Oc1cc3c(c(OC)c1OC)CCN(C)[C@@H]3Cc1ccc(cc1)O2 [Cycleanine] | 7.5% | –
